Results are given in words; binding and its absence hold for the method and conditions named.

In publication PMC9156758 one finds binding data, which are given here for 2 molecules.

The target in assay [1] is A2ML1 in human skin extract (human (endogenous in skin)) (UniProt A8K2U0). Put plainly: native gel or EMSA; human skin extract (0.1% NP40) run on native pore-limited PAGE (TBE, 10–20% gradient); lane cut into 10 slices, in-gel digestion and LC-MS/MS. In general terms: A gel shift assay detects complexes by their altered migration in electrophoresis.
For assay [2], the target named is Human alpha-2 macroglobulin-like 1 (A2ML1), recombinant wild type, native (human) (UniProt A8K2U0). Put plainly: SEC; calibrated analytical SEC on Superdex 200 Increase 10/300 GL in HBS; 50 µg A2ML1, 20 µg native A2ML1t and A2ML1-CC; both purified. A general note: SEC sorts molecules by how far they enter the pores of the column.

B1: A2ML1 in human skin extract (protein, UniProt A8K2U0 18-1454)
chain: EELPNYLVTLPARLNFPSVQKVCLDLSPGYSDVKFTVTLETKDKTQKLLEYSGLKKRHLHCISFLVPPPAGGTEEVATIRVSGVGNNISFEEKKKVLIQRQGNGTFVQTDKPLYTPGQQVYFRIVTMDSNFVPVNDKYSMVELQDPNSNRIAQWLEVVPEQGIVDLSFQLAPEAMLGTYTVAVAEGKTFGTFSVEEYVLPKFKVEVVEPKELSTVQESFLVKICCRYTYGKPMLGAVQVSVCQKANTYWYREVEREQLPDKCRNLSGQTDKTGCFSAPVDMATFDLIGYAYSHQINIVATVVEEGTGVEANATQNIYISPQMGSMTFEDTSNFYHPNFPFSGKIRVRGHDDSFLKNHLVFLVIYGTNGTFNQTLVTDNNGLAPFTLETSGWNGTDVSLEGKFQMEDLVYNPEQVPRYYQNAYLHLRPFYSTTRSFLGIHRLNGPLKCGQPQEVLVDYYIDPADASPDQEISFSYYLIGKGSLVMEGQKHLNSKKKGLKASFSLSLTFTSRLAPDPSLVIYAIFPSGGVVADKIQFSVEMCFDNQVSLGFSPSQQLPGAEVELQLQAAPGSLCALRAVDESVLLLRPDRELSNRSVYGMFPFWYGHYPYQVAEYDQCPVSGPWDFPQPLIDPMPQGHSSQRSIIWRPSFSEGTDLFSFFRDVGLKILSNAKIKKPVDCSHRSPEYSTAMGAGGGHPEAFESSTPLHQAEDSQVRQYFPETWLWDLFPIGNSGKEAVHVTVPDAITEWKAMSFCTSQSRGFGLSPTVGLTAFKPFFVDLTLPYSVVRGESFRLTATIFNYLKDCIRVQTDLAKSHEYQLESWADSQTSSCLCADDAKTHHWNITAVKLGHINFTISTKILDSNEPCGGQKGFVPQKGRSDTLIKPVLVKPEGVLVEKTHSSLLCPKGKVASESVSLELPVDIVPDSTKAYVTVLGDIMGTALQNLDGLVQMPSGCGEQNMVLFAPIIYVLQYLEKAGLLTEEIRSRAVGFLEIGYQKELMYKHSNGSYSAFGERDGNGNTWLTAFVTKCFGQAQKFIFIDPKNIQDALKWMAGNQLPSGCYANVGNLLHTAMKGGVDDEVSLTAYVTAALLEMGKDVDDPMVSQGLRCLKNSATSTTNLYTQALLAYIFSLAGEMDIRNILLKQLDQQAIISGESIYWSQKPTPSSNASPWSEPAAVDVELTAYALLAQLTKPSLTQKEIAKATSIVAWLAKQHNAYGGFSSTQDTVVALQALAKYATTAYMPSEEINLVVKSTENFQRTFNIQSVNRLVFQQDTLPNVPGMYTLEASGQGCVYVQTVLRYNILPPTNMKTFSLSVEIGKARCEQPTSPRSLTLTIHTSYVGSRSSSNMAIVEVKMLSGFSPMEGTNQLLLQQPLVKKVEFGTDTLNIYLDELIKNTQTYTFTISQSVLVTNLKPATIKVYDYYLPDEQATIQYSDPCE
Consider B1, for which, in assay [1], the binding entry is recorded as “no binding”.

B2: Human alpha-2 macroglobulin-like 1 (A2ML1), recombinant wild type, native (protein, UniProt A8K2U0 18-1454)
chain: B1 chain
modifications: internal thioester Cys970-Gln973; N-glycans (Asn120, Asn328, Asn857 named)
As for B2, in assay [2], the binding entry is “no binding”.
